Some of the results follow.
Each target was assayed with CC1Cc2ccccc2N1C(=O)C1CCCN(C1)C(=O)CCl (mixture of isomers) [TRIM25 ligand 11 (diastereomer mixture)] (assay: probe-labelled cysteine peptide fold change vs DMSO (competition) (log2 fold change); higher = less target engagement (more negative = stronger competition)). Conditions: 10 µM; THP-1; incubation time: 4 h.
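Note: competitive chemoproteomic profiling in live THP-1 cells with an iodoacetamide desthiobiotin (IA-DTB) probe, comparing probe-labelled peptide intensities in compound-treated cells against DMSO-treated controls.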

Protein sequences, listed by entry. Tags and fused reporters are not part of them. Lines headed by an entry give the natural chain unless they say otherwise; changes in a name come on top.
UniProt P11586, whole entry, looked up: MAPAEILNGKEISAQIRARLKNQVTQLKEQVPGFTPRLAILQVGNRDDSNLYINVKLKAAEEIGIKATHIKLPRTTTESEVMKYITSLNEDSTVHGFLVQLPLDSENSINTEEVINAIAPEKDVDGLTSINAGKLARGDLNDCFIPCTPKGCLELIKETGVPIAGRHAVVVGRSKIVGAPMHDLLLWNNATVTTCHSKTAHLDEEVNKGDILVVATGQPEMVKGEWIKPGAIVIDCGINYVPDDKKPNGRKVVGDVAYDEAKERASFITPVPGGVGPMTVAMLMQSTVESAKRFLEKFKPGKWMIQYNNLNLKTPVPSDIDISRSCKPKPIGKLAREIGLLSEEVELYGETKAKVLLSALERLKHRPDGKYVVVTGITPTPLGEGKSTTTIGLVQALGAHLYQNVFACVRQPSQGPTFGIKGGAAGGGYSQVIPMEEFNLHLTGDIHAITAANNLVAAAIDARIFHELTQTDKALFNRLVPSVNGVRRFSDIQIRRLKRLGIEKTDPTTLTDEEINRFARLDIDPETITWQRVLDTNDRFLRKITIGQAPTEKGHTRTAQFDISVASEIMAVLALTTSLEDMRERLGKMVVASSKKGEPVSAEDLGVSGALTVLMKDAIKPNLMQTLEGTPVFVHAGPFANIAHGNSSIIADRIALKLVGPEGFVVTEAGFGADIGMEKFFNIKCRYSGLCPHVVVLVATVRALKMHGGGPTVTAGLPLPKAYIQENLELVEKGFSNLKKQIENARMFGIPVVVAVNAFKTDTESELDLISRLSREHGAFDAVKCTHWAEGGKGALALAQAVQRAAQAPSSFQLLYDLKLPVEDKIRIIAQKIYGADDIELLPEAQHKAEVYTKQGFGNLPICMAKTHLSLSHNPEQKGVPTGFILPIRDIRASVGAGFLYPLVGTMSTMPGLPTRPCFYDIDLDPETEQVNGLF
UniProt Q9H4K7: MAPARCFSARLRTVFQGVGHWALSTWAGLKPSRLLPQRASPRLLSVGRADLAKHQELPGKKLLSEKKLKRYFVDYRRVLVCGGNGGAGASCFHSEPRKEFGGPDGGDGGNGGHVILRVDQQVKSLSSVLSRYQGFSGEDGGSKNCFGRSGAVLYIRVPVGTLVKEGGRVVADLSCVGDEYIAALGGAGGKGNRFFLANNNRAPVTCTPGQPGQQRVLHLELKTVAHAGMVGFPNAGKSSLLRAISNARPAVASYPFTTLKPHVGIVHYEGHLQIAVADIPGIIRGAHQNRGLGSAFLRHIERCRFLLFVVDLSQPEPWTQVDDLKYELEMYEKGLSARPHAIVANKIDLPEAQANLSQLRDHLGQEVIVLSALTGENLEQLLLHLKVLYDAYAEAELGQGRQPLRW
UniProt Q9Y3D2: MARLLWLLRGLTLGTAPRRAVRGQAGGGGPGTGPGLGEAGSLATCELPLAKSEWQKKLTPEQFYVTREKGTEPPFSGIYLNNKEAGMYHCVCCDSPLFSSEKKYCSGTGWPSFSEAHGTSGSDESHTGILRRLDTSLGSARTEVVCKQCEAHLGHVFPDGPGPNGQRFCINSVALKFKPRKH
UniProt Q9BUK6: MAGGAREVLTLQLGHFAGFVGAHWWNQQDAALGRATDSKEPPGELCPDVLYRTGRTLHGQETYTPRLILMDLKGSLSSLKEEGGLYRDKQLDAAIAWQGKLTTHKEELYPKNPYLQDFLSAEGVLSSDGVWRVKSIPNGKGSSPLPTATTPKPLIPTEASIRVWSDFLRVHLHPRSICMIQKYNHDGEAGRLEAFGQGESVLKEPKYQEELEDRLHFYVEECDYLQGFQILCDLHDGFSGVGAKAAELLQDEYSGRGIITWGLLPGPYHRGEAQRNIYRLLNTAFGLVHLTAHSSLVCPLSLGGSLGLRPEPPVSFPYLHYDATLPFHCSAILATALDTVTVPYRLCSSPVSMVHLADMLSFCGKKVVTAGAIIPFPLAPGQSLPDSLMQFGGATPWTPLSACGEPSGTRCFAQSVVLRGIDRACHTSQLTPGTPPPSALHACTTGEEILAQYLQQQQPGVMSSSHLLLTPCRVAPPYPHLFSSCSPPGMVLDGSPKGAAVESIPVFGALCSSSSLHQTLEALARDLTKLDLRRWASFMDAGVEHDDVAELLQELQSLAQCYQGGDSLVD
UniProt Q9Y217: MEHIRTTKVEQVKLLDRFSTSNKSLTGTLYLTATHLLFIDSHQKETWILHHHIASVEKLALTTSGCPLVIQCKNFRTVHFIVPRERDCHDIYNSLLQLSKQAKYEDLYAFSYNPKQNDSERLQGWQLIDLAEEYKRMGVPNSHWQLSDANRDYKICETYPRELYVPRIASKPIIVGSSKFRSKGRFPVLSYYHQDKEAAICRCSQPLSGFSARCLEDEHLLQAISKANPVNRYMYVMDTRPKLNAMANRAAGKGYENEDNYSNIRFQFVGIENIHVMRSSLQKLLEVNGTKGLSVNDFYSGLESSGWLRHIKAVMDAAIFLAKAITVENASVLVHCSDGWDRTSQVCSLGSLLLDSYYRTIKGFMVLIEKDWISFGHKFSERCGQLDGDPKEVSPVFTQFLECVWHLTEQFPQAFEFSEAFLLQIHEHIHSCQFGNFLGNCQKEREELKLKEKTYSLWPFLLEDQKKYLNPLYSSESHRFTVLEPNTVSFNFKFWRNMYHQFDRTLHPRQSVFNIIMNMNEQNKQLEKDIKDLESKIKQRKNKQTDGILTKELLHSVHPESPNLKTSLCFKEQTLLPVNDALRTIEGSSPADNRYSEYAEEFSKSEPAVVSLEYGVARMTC
UniProt Q9NVV4: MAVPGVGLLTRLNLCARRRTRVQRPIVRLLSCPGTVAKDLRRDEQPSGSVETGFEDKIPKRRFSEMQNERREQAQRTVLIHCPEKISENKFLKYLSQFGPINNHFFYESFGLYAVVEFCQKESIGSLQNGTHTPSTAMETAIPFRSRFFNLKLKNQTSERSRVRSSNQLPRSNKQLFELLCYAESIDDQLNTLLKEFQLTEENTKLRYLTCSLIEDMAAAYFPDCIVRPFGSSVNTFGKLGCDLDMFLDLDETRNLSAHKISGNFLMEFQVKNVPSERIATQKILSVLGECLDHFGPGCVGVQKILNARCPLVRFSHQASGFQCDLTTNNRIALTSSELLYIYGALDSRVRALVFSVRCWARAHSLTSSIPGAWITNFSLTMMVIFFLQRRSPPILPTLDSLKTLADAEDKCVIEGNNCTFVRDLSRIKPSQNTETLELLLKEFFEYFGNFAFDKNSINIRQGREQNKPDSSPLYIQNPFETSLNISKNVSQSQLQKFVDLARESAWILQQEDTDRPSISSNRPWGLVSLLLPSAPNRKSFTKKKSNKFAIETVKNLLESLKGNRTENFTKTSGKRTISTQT
UniProt P43246, whole entry, looked up: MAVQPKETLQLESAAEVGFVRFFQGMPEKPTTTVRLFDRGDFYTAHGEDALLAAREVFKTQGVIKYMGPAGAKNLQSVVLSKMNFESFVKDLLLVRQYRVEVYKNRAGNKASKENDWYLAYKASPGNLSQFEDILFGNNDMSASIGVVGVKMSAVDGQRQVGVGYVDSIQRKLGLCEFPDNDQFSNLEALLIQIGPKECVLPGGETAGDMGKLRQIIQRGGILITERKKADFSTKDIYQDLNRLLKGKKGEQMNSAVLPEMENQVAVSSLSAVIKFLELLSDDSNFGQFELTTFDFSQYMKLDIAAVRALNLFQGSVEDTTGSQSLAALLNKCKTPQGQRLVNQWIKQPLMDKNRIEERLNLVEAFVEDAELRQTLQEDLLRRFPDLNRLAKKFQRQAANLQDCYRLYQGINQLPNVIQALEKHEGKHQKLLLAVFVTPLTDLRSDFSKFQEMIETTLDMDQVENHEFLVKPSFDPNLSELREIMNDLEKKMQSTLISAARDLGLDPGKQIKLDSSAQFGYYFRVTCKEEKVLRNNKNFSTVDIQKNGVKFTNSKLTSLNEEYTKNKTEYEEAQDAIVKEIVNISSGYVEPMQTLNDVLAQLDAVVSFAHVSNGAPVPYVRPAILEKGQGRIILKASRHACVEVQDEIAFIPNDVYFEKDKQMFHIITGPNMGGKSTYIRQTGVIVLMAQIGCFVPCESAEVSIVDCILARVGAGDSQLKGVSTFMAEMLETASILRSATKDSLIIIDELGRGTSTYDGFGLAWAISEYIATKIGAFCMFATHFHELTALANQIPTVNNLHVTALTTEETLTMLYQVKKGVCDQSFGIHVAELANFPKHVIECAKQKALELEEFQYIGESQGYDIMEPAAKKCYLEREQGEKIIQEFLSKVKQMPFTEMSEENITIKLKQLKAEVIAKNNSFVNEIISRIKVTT
UniProt P22033: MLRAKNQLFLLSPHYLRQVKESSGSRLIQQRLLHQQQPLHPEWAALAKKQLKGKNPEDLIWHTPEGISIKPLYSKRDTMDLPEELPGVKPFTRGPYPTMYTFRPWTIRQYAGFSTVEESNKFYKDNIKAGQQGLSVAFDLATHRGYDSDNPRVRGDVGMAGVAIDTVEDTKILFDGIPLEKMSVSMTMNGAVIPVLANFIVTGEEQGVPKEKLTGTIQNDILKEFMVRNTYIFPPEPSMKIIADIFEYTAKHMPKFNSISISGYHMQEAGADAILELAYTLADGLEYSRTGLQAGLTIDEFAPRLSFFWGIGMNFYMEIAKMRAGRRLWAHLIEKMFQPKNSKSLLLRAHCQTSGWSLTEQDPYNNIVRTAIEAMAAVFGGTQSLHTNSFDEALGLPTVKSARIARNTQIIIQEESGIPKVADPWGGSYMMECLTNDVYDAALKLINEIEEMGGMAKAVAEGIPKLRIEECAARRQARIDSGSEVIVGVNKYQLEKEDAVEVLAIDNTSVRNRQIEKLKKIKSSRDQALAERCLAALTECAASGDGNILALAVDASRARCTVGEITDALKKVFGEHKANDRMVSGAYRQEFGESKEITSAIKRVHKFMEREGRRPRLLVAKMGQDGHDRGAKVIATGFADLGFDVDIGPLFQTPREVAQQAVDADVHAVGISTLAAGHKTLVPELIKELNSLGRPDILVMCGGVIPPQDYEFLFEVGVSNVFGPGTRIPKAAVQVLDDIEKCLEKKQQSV
UniProt Q2M296: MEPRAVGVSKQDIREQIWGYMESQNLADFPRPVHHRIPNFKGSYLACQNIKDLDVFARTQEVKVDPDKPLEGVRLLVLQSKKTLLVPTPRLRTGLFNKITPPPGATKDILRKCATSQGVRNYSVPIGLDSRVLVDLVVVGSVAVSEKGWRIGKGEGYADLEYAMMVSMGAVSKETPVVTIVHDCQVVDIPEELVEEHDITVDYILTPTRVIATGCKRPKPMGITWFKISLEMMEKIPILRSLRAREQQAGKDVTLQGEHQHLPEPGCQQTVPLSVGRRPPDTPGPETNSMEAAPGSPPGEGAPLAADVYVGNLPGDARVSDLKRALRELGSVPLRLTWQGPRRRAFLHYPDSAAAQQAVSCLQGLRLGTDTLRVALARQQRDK
UniProt Q9Y483: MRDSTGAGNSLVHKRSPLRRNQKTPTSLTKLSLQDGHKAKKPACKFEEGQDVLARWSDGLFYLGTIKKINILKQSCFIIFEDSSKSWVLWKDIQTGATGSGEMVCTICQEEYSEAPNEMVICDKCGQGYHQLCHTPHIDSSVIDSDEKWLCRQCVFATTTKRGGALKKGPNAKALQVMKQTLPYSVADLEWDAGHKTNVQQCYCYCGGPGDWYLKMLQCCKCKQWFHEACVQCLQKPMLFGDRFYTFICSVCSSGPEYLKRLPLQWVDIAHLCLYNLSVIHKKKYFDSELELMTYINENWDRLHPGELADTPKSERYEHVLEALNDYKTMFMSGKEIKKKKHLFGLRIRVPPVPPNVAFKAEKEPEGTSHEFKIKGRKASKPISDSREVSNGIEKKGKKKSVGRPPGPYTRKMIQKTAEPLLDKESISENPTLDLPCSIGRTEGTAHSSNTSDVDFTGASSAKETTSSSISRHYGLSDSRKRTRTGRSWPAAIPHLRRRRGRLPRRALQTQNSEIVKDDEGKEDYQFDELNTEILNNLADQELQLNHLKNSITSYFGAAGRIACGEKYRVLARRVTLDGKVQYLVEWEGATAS
UniProt Q13496: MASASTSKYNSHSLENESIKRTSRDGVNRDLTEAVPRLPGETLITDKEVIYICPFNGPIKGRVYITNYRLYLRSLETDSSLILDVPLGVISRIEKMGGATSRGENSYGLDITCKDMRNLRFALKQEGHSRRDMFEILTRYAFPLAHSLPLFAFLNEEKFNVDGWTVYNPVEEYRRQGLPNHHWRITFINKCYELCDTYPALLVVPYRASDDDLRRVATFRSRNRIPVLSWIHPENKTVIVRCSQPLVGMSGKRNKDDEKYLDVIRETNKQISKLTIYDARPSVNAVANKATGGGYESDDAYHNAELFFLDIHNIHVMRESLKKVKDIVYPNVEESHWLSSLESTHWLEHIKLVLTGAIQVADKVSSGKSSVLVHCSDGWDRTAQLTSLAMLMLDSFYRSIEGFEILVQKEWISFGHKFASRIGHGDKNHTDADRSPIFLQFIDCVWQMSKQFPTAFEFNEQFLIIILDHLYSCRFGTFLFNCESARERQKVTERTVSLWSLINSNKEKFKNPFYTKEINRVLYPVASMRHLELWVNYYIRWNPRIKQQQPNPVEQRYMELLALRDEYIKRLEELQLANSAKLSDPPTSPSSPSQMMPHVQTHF

| Target | probe-labelled cysteine peptide fold change |
| --- | --- |
| MRTO4_Q9UKD2_176_RGVVTLLSDYEVCK (UniProt Q9UKD2) | 0.091 |
| MTHFD1_P11586_236_GEWIKPGAIVIDCGINYVPDDKKPNGR (UniProt P11586) | -0.357 |
| MTRF1L_Q9UGC7_103_LAENEITLCQK (UniProt Q9UGC7) | -0.0422 |
| MTA1_Q13330_281_AISALVPQGGPVLCR (UniProt Q13330) | 0.116 |
| MTOR_P42345_1999_NMCEHSNTLVQQAMMVSEELIR (UniProt P42345) | 0.128 |
| MTG2_Q9H4K7_175_VVADLSCVGDEYIAALGGAGGK (UniProt Q9H4K7) | 0.0379 |
| MTOR_P42345_1498_CLEALGEWGQLHQQCCEK (UniProt P42345) | -0.0124 |
| MYCBP2_O75592_4393_THPCGHPCGGVK (UniProt O75592) | -0.0685 |
| MSRB2_Q9Y3D2_169_FCINSVALK (UniProt Q9Y3D2) | -0.0842 |
| MTHFD1_P11586_326_SCKPKPIGK (UniProt P11586) | -0.35 |
| MSH6_P52701_1129_AYCVLVTGPNMGGK (UniProt P52701) | -0.116 |
| MSTO1_Q9BUK6_347_LCSSPVSMVHLADMLSFCGK (UniProt Q9BUK6) | 0.282 |
| MTHFD1L_Q6UB35_906_YTQQGFGNLPICMAK (UniProt Q6UB35) | 0.0783 |
| MTHFD1_P11586_236_GEWIKPGAIVIDCGINYVPDDK (UniProt P11586) | 0.235 |
| MTMR6_Q9Y217_203_CSQPLSGFSAR (UniProt Q9Y217) | 0.00906 |
| MYBPH_Q13203_437_ALSEQGVCTLEIR (UniProt Q13203) | 0.192 |
| MYCBP2_O75592_3051_AVFASFLWHEGIVHDAMACSSFLK (UniProt O75592) | 0.0319 |
| MSRB2_Q9Y3D2_105_KYCSGTGWPSFSEAHGTSGSDESHTGILR (UniProt Q9Y3D2) | 0.0554 |

| Target | probe-labelled cysteine peptide fold change |
| --- | --- |
| MYH9_P35579_1379_MEDSVGCLETAEEVKR (UniProt P35579) | -0.129 |
| MTPAP_Q9NVV4_299_ILSVLGECLDHFGPGCVGVQK (UniProt Q9NVV4) | -0.0551 |
| MYH11_P35749_95_VEDMAELTCLNEASVLHNLR (UniProt P35749) | 0.36 |
| MSH2_P43246_843_HVIECAK (UniProt P43246) | 0.0187 |
| MSRB2_Q9Y3D2_45_GQAGGGGPGTGPGLGEAGSLATCELPLAK (UniProt Q9Y3D2) | -0.113 |
| MSL3P1_P0C860_283_SSPHTANCDR (UniProt P0C860) | 0.0299 |
| MUT_P22033_433_VADPWGGSYMMECLTNDVYDAALK (UniProt P22033) | -0.034 |
| MTHFD1_P11586_408_STTTIGLVQALGAHLYQNVFACVR (UniProt P11586) | -0.373 |
| MRPS22_P82650_231_HVDVLNLCFAQFEPDSTEYIK (UniProt P82650) | -0.199 |
| MTA2_O94776_126_EDCFFYSLVFDPVQK (UniProt O94776) | 0.0909 |
| MUT_P22033_560_CTVGEITDALK (UniProt P22033) | -0.164 |
| MSRA_Q9UJ68_74_TVEPFPEGTQMAVFGMGCFWGAER (UniProt Q9UJ68) | 0.122 |
| MTHFSD_Q2M296_267_DVTLQGEHQHLPEPGCQQTVPLSVGR (UniProt Q2M296) | -0.204 |
| MYCBP2_O75592_4672_QLEGTECPLHVVHPPTGEEFALGCGVCR (UniProt O75592) | 0.121 |
| MSH6_P52701_1158_QAGLLAVMAQMGCYVPAEVCR (UniProt P52701) | 0.132 |
| MTF2_Q9Y483_219_MLQCCK (UniProt Q9Y483) | 0.0912 |
| MTM1_Q13496_444_NHTDADRSPIFLQFIDCVWQMSK (UniProt Q13496) | 0.172 |
| MSH6_P52701_783_QWLCAPLCNHYAINDRLDAIEDLMVVPDK (UniProt P52701) | 0.182 |

Same assay, conditions: 50 µM; THP-1; incubation time: 4 h

| Target | probe-labelled cysteine peptide fold change |
| --- | --- |
| MRTO4_Q9UKD2_176_RGVVTLLSDYEVCK (UniProt Q9UKD2) | -0.0317 |
| MTHFD1_P11586_236_GEWIKPGAIVIDCGINYVPDDKKPNGR (UniProt P11586) | -0.226 |
| MTRF1L_Q9UGC7_103_LAENEITLCQK (UniProt Q9UGC7) | 0.0547 |
| MTA1_Q13330_281_AISALVPQGGPVLCR (UniProt Q13330) | 0.139 |
| MTOR_P42345_1999_NMCEHSNTLVQQAMMVSEELIR (UniProt P42345) | -0.224 |
| MTG2_Q9H4K7_175_VVADLSCVGDEYIAALGGAGGK (UniProt Q9H4K7) | -0.147 |
| MTOR_P42345_1498_CLEALGEWGQLHQQCCEK (UniProt P42345) | 0.00669 |
| MYCBP2_O75592_4393_THPCGHPCGGVK (UniProt O75592) | -0.0531 |
| MSRB2_Q9Y3D2_169_FCINSVALK (UniProt Q9Y3D2) | 0.0432 |
| MTHFD1_P11586_326_SCKPKPIGK (UniProt P11586) | -0.425 |
| MSH6_P52701_1129_AYCVLVTGPNMGGK (UniProt P52701) | -0.246 |
| MSTO1_Q9BUK6_347_LCSSPVSMVHLADMLSFCGK (UniProt Q9BUK6) | 0.111 |
| MTHFD1L_Q6UB35_906_YTQQGFGNLPICMAK (UniProt Q6UB35) | 0.0417 |
| MTHFD1_P11586_236_GEWIKPGAIVIDCGINYVPDDK (UniProt P11586) | 0.104 |
| MTMR6_Q9Y217_203_CSQPLSGFSAR (UniProt Q9Y217) | 0.15 |
| MYBPH_Q13203_437_ALSEQGVCTLEIR (UniProt Q13203) | 0.136 |
| MYCBP2_O75592_3051_AVFASFLWHEGIVHDAMACSSFLK (UniProt O75592) | -0.26 |
| MSRB2_Q9Y3D2_105_KYCSGTGWPSFSEAHGTSGSDESHTGILR (UniProt Q9Y3D2) | -0.192 |

| Target | probe-labelled cysteine peptide fold change |
| --- | --- |
| MYH9_P35579_1379_MEDSVGCLETAEEVKR (UniProt P35579) | -0.115 |
| MTPAP_Q9NVV4_299_ILSVLGECLDHFGPGCVGVQK (UniProt Q9NVV4) | 0.0135 |
| MYH11_P35749_95_VEDMAELTCLNEASVLHNLR (UniProt P35749) | -0.349 |
| MSH2_P43246_843_HVIECAK (UniProt P43246) | 0.0469 |
| MSRB2_Q9Y3D2_45_GQAGGGGPGTGPGLGEAGSLATCELPLAK (UniProt Q9Y3D2) | -0.378 |
| MSL3P1_P0C860_283_SSPHTANCDR (UniProt P0C860) | -0.16 |
| MUT_P22033_433_VADPWGGSYMMECLTNDVYDAALK (UniProt P22033) | -0.0693 |
| MTHFD1_P11586_408_STTTIGLVQALGAHLYQNVFACVR (UniProt P11586) | -0.246 |
| MRPS22_P82650_231_HVDVLNLCFAQFEPDSTEYIK (UniProt P82650) | -0.125 |
| MTA2_O94776_126_EDCFFYSLVFDPVQK (UniProt O94776) | 0.0304 |
| MUT_P22033_560_CTVGEITDALK (UniProt P22033) | 0.0877 |
| MSRA_Q9UJ68_74_TVEPFPEGTQMAVFGMGCFWGAER (UniProt Q9UJ68) | 0.22 |
| MTHFSD_Q2M296_267_DVTLQGEHQHLPEPGCQQTVPLSVGR (UniProt Q2M296) | -0.261 |
| MYCBP2_O75592_4672_QLEGTECPLHVVHPPTGEEFALGCGVCR (UniProt O75592) | -0.107 |
| MSH6_P52701_1158_QAGLLAVMAQMGCYVPAEVCR (UniProt P52701) | -0.075 |
| MTF2_Q9Y483_219_MLQCCK (UniProt Q9Y483) | 0.106 |
| MTM1_Q13496_444_NHTDADRSPIFLQFIDCVWQMSK (UniProt Q13496) | 0.0648 |
| MSH6_P52701_783_QWLCAPLCNHYAINDRLDAIEDLMVVPDK (UniProt P52701) | -0.0199 |
